Source: patent publication US20110158908A1, “CYCLOSPORIN A-BINDING PROTEIN” (Sapporo Medical University, priority 2007, published 2011)
These are yes or no findings as the source states them, for the method shown. For some of these results: Binding can be weak; no strength is given. Tags and fused reporters may be left off the sequences shown.

Tests used:
[1] = biological target: NS5B (HCV-derived, RNA-dependent RNA polymerase) (HCV); assay: GST pull-down (recap of the in vitro experiment)
[2] = biological target: NS5B (HCV-derived, RNA-dependent RNA polymerase) (HCV); assay: GST pull-down with various in vitro synthesized NS5B fragments
[3] = biological target: NS5B (HCV-derived, RNA-dependent RNA polymerase) (HCV); assay: GST pull-down with glutathione Sepharose, 35S-labeled in vitro synthesized protein, autoradiography
NS3 (hepatitis C virus) = assay: GST pull-down of 35S-labelled in vitro synthesized protein with GST-CSABP on glutathione Sepharose, SDS-PAGE, autoradiography
NS4B (hepatitis C virus) = assay: as above
NS5A (hepatitis C virus) = assay: as above
[4] = biological target: NS5B (HCV-derived, RNA-dependent RNA polymerase) (HCV); assay: GST pull-down of 35S-labelled in vitro synthesized NS5B with GST-CSABP on glutathione Sepharose, CsA added to the co-culture, SDS-PAGE, autoradiography

B1: CSABP-GST fusion protein (protein, not shown: a dimerising Fc or GST)
chain: MSRPSSVSPRQPAPGGGGGGGPSPCGPGGGGRAKGLKDIRIDEEVKIAVNIALERFRYGDQREMEFPSSLTSTERAFIHRLSQSLGLVSKSKGKGANRYLTVKKKDGSETAHAMMTCNLTHNTKHAVRSLIQRFPVTNKERTELLPKTERGNVFAVEAENREMSKTSGRLNNGIPQIPVKRGESEFDSFRQSLPVFEKQEEIVKIIKENKVVLIVGETGSGKTTQIPQFLLDDCFKNGIPCRIFCTQPRRLAAIAVAERVAAERRERIGQTIGYQIRLESRVSPKTLLTFCTNGVLLRTLMAGDSTLSTVTHVIVDEVHERDRFSDFLLTKLRDLLQKHPTLKLILSSAALDVNLFIRYFGSCPVIYIQGRPFEVKEMFLEDILRTTGYTNKEMLKYKKEKQQEEKQQTTLTEWYSAQENSFKPESQRQRTVLNVTDEYDLLDDGGDAVFSQLTEKDVNCLEPWLIKEMDACLSDIWLHKDIDAFAQVFHLILTENVSVDYRHSETSATALMVAAGRGFASQVEQLISMGANVHSKASNGWMALDWAKHFGQTEIVDLLESYSASLEFGNLDESSLVQTNGSDLSAEDRELLKAYHHSFDDEKVDLDLIMHLLYNICHSCDAGAVLIFLPGYDEIVGLRDRILFDDKRFADNTHRYQVFMLHSNMQTSDQKKVLKNPPAGVRKIILSTNIAETSITVNDVVFVIDSGKVKEKSFDALNFVTMLKMVWISKASAIQRKGRAGRCRPGICFRLFSRLRFQNMLEFQTPELLRMPLQELCLHTKLLAPVNCPIADFLMKAPEPPPALIVRNAVQMLKTIDAMDTWEDLTELGYHLADLPVEPHLGKMVLCAVVLKCLDPILTIACTLAYRDPFVLPTQASQKRAAMLCRKRFTAGAFSDHMALLRAFQAWQKARSDGWERAFCEKNFLSQATMEIIIGMRTQLLGQLRASGFVRARGGGDIRDVNTNSENWAVVKAALVAGMYPNLVHVDRENLVLTGPKEKKVRFHPASVLSQPQYKKIPPANGQAAAIKALPTDWLIYDEMTRAHRIANIRCCSAVTPVTILVFCGPARLASNALQEPSSFRVDGIPNDSSDSEMEDKTTANLAALKLDEWLHFTLEPEAASLLLQLRQKWHSLFLRRMRAPSKPWSQVDEATIRAIIAVLSTEEQSAGLQQPSGIGQRPRPMSSEELPLASSWRSNNSRKSSADTEFSDECTTAERVLMKSPSPALHPPQKYKDRGILHPKRGTEDRSDQSSLKSTDSSSYPSPCASPSPPSSGKGSKSPSPRPNMPVRYFIMKSSNLRNLEISQQKGIWSTTPSNERKLNRAFWESSIVYLVFSVQGSGHFQGFSRMSSEIGREKSQDWGSAGLGGVFKVEWIRKESLPFQFAHHLLNPWNDNKKVQISRDGQELEPLVGEQLLQLWERLPLGEKNTTD
In the case of B1, the binding [1] is reported as “binds”, the binding [2] is reported as “binds” and the binding [3] is reported as “binds”. For the same binder, the binding (NS3 (hepatitis C virus)) was “no binding”, the binding (NS4B (hepatitis C virus)) was “no binding” and the binding (NS5A (hepatitis C virus)) was “no binding”. The binding [4] was “binds”.
